This data set can be described thus: general procedure: solution-phase peptide synthesis. To be noted: coupling step.
“L-Dolavalyl-L-Valyl-N-Methyl-(S,S,R)-Dolaisoleucyl-(S,R,R)-Dolaproyl-L-Phenylalanineamide-N-(1-adamantane)” showed a step yield of 89.6%.

“L-Dolavalyl-L-Valyl-N-Methyl-(S,S,R)-Dolaisoleucyl-(S,R,R)-Dolaproyl-L-Phenylalanineamide-N-[2-(4-phenylthiazole)]” showed a step yield of 90.3%. With “L-Dolavalyl-L-Valyl-N-Methyl-(S,S,R)-Dolaisoleucyl-(S,R,R)-Dolaproyl-L-Phenylalanineamide-N-(methenyl-2-thiophene)”, the step yield is on record as 95.9%.

For the substance “L-Dolavalyl-L-Valyl-N-Methyl-(S,S,R)-Dolaisoleucyl-(S,R,R)-Dolaproyl-L-Phenylalanineamide-N-(methenyl-2-pyridine)”, the step yield is reported as 96.8%. Regarding “L-Dolavalyl-L-Valyl-N-Methyl-(S,S,R)-Dolaisoleucyl-(S,R,R)-Dolaproyl-L-Phenylalanineamide-N-(2-benzothiazole)”, the step yield is given as 81.3%. The substance “L-Dolavalyl-L-Valyl-N-Methyl-(S,S,R)-Dolaisoleucyl-(S,R,R)-Dolaproyl-L-Phenylalanineamide-N-(2-thiazole)” showed a step yield of 84.7%. As for “L-Dolavalyl-L-Valyl-N-Methyl-(S,S,R)-Dolaisoleucyl-(S,R,R)-Dolaproyl-L-Phenylalanineamide-N-(3-quinoline)”, the step yield amounted to 82.9%.

In the case of “L-Dolavalyl-L-Valyl-N-Methyl-(S,S,R)-Dolaisoleucyl-(S,R,R)-Dolaproyl-L-Phenylalanineamide-N-[2-(6-methoxybenzo-thiazole)]”, the step yield is recorded as 87.6%. On to “L-Dolavalyl-L-Valyl-N-Methyl-(S,S,R)-Dolaisoleucyl-(S,R,R)-Dolaproyl-L-Phenylalanineamide-N-[2-(1,3,4-thiadiazole)]”, for which the step yield came to 95.4%. “L-Dolavalyl-L-Valyl-N-Methyl-(S,S,R)-Dolaisoleucyl-(S,R,R)-Dolaproyl-L-Phenylalanineamide-N-[2-(4-methylthiazole)]” showed a step yield of 91.1%.

The record behind these values is US5410024A (Arizona Board of Regents acting on behalf of Arizona State …, priority 1993, dated 1995).
